In PMC4619598:
Results are given in words; binding and its absence hold for the method and conditions named. In cells and extracts the contact can be indirect. Here binding means that the protein was enriched with, or labelled near, the bait; the list need not be complete. Where a sequence is shown, tags or fusion partners need not be part of it.

T1: MET18-3FLAG-3HA (Arabidopsis thaliana) (UniProt Q0WVF8)
T1 sequence: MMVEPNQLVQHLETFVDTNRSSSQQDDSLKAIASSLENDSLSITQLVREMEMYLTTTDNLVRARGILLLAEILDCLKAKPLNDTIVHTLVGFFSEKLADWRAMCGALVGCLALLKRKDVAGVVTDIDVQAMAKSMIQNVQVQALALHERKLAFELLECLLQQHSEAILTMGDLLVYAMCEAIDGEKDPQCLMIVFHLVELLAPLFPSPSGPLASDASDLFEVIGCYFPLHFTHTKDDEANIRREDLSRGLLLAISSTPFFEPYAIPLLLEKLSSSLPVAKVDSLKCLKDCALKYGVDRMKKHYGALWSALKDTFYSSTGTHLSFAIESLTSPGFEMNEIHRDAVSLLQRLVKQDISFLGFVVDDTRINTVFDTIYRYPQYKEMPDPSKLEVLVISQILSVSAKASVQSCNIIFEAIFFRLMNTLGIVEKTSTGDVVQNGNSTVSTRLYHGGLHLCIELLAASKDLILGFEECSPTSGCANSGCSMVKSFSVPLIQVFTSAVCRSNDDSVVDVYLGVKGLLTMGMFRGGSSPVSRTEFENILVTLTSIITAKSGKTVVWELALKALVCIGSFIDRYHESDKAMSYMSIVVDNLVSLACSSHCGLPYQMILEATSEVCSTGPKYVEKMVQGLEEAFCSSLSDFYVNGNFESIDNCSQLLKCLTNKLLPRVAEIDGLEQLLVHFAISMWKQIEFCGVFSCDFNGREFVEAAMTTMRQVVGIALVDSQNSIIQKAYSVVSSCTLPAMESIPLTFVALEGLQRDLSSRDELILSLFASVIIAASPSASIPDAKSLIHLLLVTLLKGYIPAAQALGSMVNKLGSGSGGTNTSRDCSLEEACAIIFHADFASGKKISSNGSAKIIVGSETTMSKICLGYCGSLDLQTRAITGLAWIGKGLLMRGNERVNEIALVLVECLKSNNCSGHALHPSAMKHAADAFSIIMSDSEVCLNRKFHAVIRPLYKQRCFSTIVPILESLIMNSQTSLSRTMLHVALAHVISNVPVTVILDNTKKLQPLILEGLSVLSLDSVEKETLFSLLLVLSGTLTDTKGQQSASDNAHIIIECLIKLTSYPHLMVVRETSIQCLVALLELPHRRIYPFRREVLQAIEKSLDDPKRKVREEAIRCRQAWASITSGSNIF

B1: ROS1 (protein, UniProt Q9SJQ6 1-1393)
chain: MEKQRREESSFQQPPWIPQTPMKPFSPICPYTVEDQYHSSQLEERRFVGNKDMSGLDHLSFGDLLALANTASLIFSGQTPIPTRNTEVMQKGTEEVESLSSVSNNVAEQILKTPEKPKRKKHRPKVRREAKPKREPKPRAPRKSVVTDGQESKTPKRKYVRKKVEVSKDQDATPVESSAAVETSTRPKRLCRRVLDFEAENGENQTNGDIREAGEMESALQEKQLDSGNQELKDCLLSAPSTPKRKRSQGKRKGVQPKKNGSNLEEVDISMAQAAKRRQGPTCCDMNLSGIQYDEQCDYQKMHWLYSPNLQQGGMRYDAICSKVFSGQQHNYVSAFHATCYSSTSQLSANRVLTVEERREGIFQGRQESELNVLSDKIDTPIKKKTTGHARFRNLSSMNKLVEVPEHLTSGYCSKPQQNNKILVDTRVTVSKKKPTKSEKSQTKQKNLLPNLCRFPPSFTGLSPDELWKRRNSIETISELLRLLDINREHSETALVPYTMNSQIVLFGGGAGAIVPVTPVKKPRPRPKVDLDDETDRVWKLLLENINSEGVDGSDEQKAKWWEEERNVFRGRADSFIARMHLVQGDRRFTPWKGSVVDSVVGVFLTQNVSDHLSSSAFMSLASQFPVPFVPSSNFDAGTSSMPSIQITYLDSEETMSSPPDHNHSSVTLKNTQPDEEKDYVPSNETSRSSSEIAISAHESVDKTTDSKEYVDSDRKGSSVEVDKTDEKCRVLNLFPSEDSALTCQHSMVSDAPQNTERAGSSSEIDLEGEYRTSFMKLLQGVQVSLEDSNQVSPNMSPGDCSSEIKGFQSMKEPTKSSVDSSEPGCCSQQDGDVLSCQKPTLKEKGKKVLKEEKKAFDWDCLRREAQARAGIREKTRSTMDTVDWKAIRAADVKEVAETIKSRGMNHKLAERIQGFLDRLVNDHGSIDLEWLRDVPPDKAKEYLLSFNGLGLKSVECVRLLTLHHLAFPVDTNVGRIAVRLGWVPLQPLPESLQLHLLEMYPMLESIQKYLWPRLCKLDQKTLYELHYQMITFGKVFCTKSKPNCNACPMKGECRHFASAFASARLALPSTEKGMGTPDKNPLPLHLPEPFQREQGSEVVQHSEPAKKVTCCEPIIEEPASPEPETAEVSIADIEEAFFEDPEEIPTIRLNMDAFTSNLKKIMEHNKELQDGNMSSALVALTAETASLPMPKLKNISQLRTEHRVYELPDEHPLLAQLEKREPDDPCSYLLAIWTPGETADSIQPSVSTCIFQANGMLCDEETCFSCNSIKETRSQIVRGTILIPCRTAMRGSFPLNGTYFQVNEVFADHASSLNPINVPRELIWELPRRTVYFGTSVPTIFKGLSTEKIQACFWKGYVCVRGFDRKTRGPKPLIARLHFPASKLKGQQANLA
B2: AE7 (protein, UniProt Q9C9G6 1-157)
chain: MVSGLINENPIIYPKKERRLRTDTSITDELTPEPIDQLEIFDHIRDIKDPEHPNTLEDLRVVTEDSVEVDDENSYVRVTFTPTVEHCSMATVIGLCVRVKLLRSLPSRYKIDIRVAPGSHATEDALNKQLNDKERVAAALENPNLVEMVDECLPSEE
B3: CIA1 (protein, UniProt O80990 1-352)
chain: MDLMEKNLELVEIQKLEGHTDRVWSVAWNPVSSHADGVSPILASCSGDNTVRIWEQSSLSRSWTCKTVLEETHTRTVRSCAWSPSGQLLATASFDGTTGIWKNYGSEFECISTLEGHENEVKSVSWNASGSCLATCSRDKSVWIWEVLEGNEYDCAAVLTGHTQDVKMVQWHPTMDVLFSCSYDNTIKVWWSEDDDGEYQCVQTLGESNNGHSSTVWSISFNAAGDKMVTCSDDLTLKIWGTDIAKMQSGEEYAPWIHLCTLSGYHDRTIYSAHWSRDDIIASGAGDNAIRLFVDSKHDSVDGPSYNLLLKKNKAHENDVNSVQWSPGEGNRLLASASDDGMVKIWQLATKP

molecular target: T1, MET18-3FLAG-3HA (Arabidopsis thaliana); experiment: affinity purification with mass spectrometry; MET18-3FLAG-3HA captured on anti-FLAG M2 agarose beads from flower tissue lysate of transgenic plants; lysis buffer 50 mM Tris pH 7.6, 150 mM NaCl, 5 mM MgCl2, 10% glycerol, 0.1% NP-40, 0.5 mM DTT; 4°C, 2-3 hours; 35S::SUC2 plants as negative control

binding | Binder
binds | B1
binds | B2
binds | B3
